# The list shows a part of the results. Shown are side measurements of this screen, not its main read-out; they come without a call. Compounds called inactive in the main read-out are mostly missing here. Words in brackets tell the shape of the fitted curve; partial curves, single points and poor fits give uncertain potencies.
# Experiment: qHTS Assay for Lipid Storage Modulators in Drosophila S3 Cells;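 as to cell number change: cells counted by Cell Tracker Red CMTPX staining in the red channel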
# Details: BODIPY lipid droplet fluorescence, 18-24 h; for cell number change: measured here: cell count max response, cells fed with added oleic acid
# Summary of the method: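 Laser-scanning cytometry quantifies lipid droplet accumulation (500–530 nm total intensity; droplet/cell object ratio) in oleic acid-fed (400 uM added) Drosophila S3 cells treated with a concentration series. 20 uM Triacsin C defined 100% inhibition.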
# [1] = measured here: lipid fluorescence (Fed channel) AC50, cells fed with added oleic acid
# [2] = measured here: cell number channel AC50, cells fed with added oleic acid
smiles,measurement,setting,value
O=C(NCc1ccco1)c1scc2c1OCCO2,cell number change,,-1.53%
same,AC50,[1],"29.1 µM [rising, single point]"
O=C(c1ccc2nccnc2c1)N1CCN(c2cccc(C(F)(F)F)c2)CC1,cell number change,,-42.2%
same,AC50,[2],"29.1 µM [falling, single point]"
same,AC50,[1],"9.2 µM [falling, partial curve]"
COc1ccc(C(=O)CCC(=O)N2CCN(c3cc(C)ccc3C)CC2)cc1,cell number change,,25.8%
same,AC50,[2],"0.0731 µM [rising, full curve, poor fit]"
Cc1nn(C(=O)c2cccc([N+](=O)[O-])c2)c(C)c1Sc1ccccc1,cell number change,,8.71%
same,AC50,[1],"2.06 µM [rising, full curve, poor fit]"
O=C1C2C3C=CC(C3)C2C(=O)N1c1cccnc1 (stereo not given),cell number change,,30.9%
same,AC50,[2],"29.1 µM [rising, single point]"
O=C(Cc1ccccc1)N1CCc2ccccc21,cell number change,,-36.7%
Fc1cccc(/C=N/Nc2ccc(Cl)nn2)c1,cell number change,,-29%
same,AC50,[1],"16.4 µM [falling, single point]"
Cc1cc2c(n1-c1ccc(C(=O)O)cc1)CCCCC2,cell number change,,5.41%
same,AC50,[2],"0.13 µM [falling, full curve, poor fit]"
same,AC50,[1],"1.03 µM [falling, full curve]"
CCCCC(=O)c1c(C)cc(C)[nH]c1=O,cell number change,,-20.2%
same,AC50,[1],"29.1 µM [falling, single point]"
COC(=O)CC(c1ccc(C#N)cc1)n1c(C)ccc1C (stereo not given),cell number change,,-12%
same,AC50,[1],"25.9 µM [falling, single point]"
OCCNc1nc(Nc2ccc(Cl)c(Cl)c2)nc2ccccc12,cell number change,,-69.3%
same,AC50,[2],"18.4 µM [falling, partial curve]"
same,AC50,[1],"2.31 µM [falling, full curve]"
Nn1c(-c2ccccn2)nnc1-c1ccccn1,cell number change,,130%
same,AC50,[2],"9.2 µM [rising, partial curve]"
same,AC50,[1],"5.8 µM [rising, partial curve]"
COc1ccc(CC(=O)Nc2oc(-c3ccccc3)c(-c3ccccc3)c2C#N)cc1OC,cell number change,,-37.9%
same,AC50,[2],"18.4 µM [falling, single point]"
same,AC50,[1],"16.4 µM [falling, partial curve]"
O=C(NCCc1ccccn1)c1n[nH]c(=O)c2ccccc12,cell number change,,-6.35%
Cc1ccc(Cn2ncc3c(N4CCN(C5CCCC5)CC4)ncnc32)cc1,cell number change,,-29.3%
same,AC50,[1],"6.51 µM [falling, single point]"
O=C(CCNC(=O)c1ccccc1Cl)Nc1cc(S(=O)(=O)N2CCOCC2)ccc1N1CCCC1,AC50,[1],"0.326 µM [falling, partial curve, poor fit]"
CCOC(=O)Cc1csc(SCC(=O)Nc2oc(C)c3c(C)n[nH]c(=O)c23)n1,cell number change,,3.89%
same,AC50,[1],"0.00461 µM [rising, full curve, poor fit]"
COC(=O)C(C)Sc1nnc(-c2ccncc2)o1 (stereo not given),cell number change,,-171%
same,AC50,[2],"23.1 µM [falling, partial curve]"
same,AC50,[1],"18.4 µM [falling, partial curve]"
COc1ccc(N2C(=O)CC(S/C(N)=N/N=C/c3ccnc4ccccc34)C2=O)cc1 (stereo not given),cell number change,,-18.7%
same,AC50,[1],"0.461 µM [falling, single point]"
COc1ccc(S(=O)(=O)N2CN3CCN(C3)C2)cc1OC,cell number change,,29.2%
same,AC50,[1],"0.58 µM [rising, single point]"
COc1ccc(C/C(O)=C(\C#N)c2nc3ccccc3[nH]2)cc1OC,cell number change,,12.6%
same,AC50,[1],"0.13 µM [rising, full curve, poor fit]"
Cc1cc(C)nc(SCc2nnc(SCC#N)n2-c2cccc(Cl)c2)n1,cell number change,,-31.5%
same,AC50,[2],"13 µM [falling, partial curve, poor fit]"
CC(C)(C)c1cc(NC(=O)Nc2ccccc2)no1,cell number change,,-28.9%
same,AC50,[1],"32.6 µM [falling, single point]"
CC(=O)Nc1ccc(C(=O)N/N=C/c2cc(Br)cc(Br)c2O)cc1,cell number change,,-19.1%
same,AC50,[1],"0.184 µM [falling, full curve, poor fit]"
COc1cc(NS(C)(=O)=O)ccc1Nc1c2ccccc2nc2ccccc12,cell number change,,-1.77%
same,AC50,[1],"1.84 µM [rising, full curve]"
CN(C)c1cccc(C(=O)OCC(=O)N2CCc3ccccc3C2)c1,cell number change,,-31.6%
same,AC50,[2],"32.6 µM [falling, single point]"
same,AC50,[1],"29.1 µM [falling, single point]"
CS(=O)(=O)Nc1ccc(C2=NN(C(=O)C3CCCCC3)C(c3cccs3)C2)cc1 (stereo not given),cell number change,,-1.1%
same,AC50,[1],"6.51 µM [rising, partial curve, poor fit]"
N#Cc1nc(-c2ccc(Cl)cc2)oc1NCC1CCCO1 (stereo not given),cell number change,,7.7%
COc1ccc2[nH]cc(CCNC(=O)c3ccc4ccccc4n3)c2c1,AC50,[1],"6.51 µM [falling, single point]"
S=C(NCc1ccc(Cl)cc1)Nc1ccc(Cl)cc1Cl,cell number change,,-45.9%
same,AC50,[2],"18.4 µM [falling, partial curve]"
same,AC50,[1],"14.6 µM [falling, partial curve]"
O=C(O)CSCC(=O)NCc1ccccc1Cl,cell number change,,-4.78%
same,AC50,[2],"6.51 µM [rising, single point]"
same,AC50,[1],"0.00651 µM [falling, full curve, poor fit]"
CCOC(=O)c1ccc(Nc2nnc3nc(C)cc(C)n23)cc1,cell number change,,111%
same,AC50,[2],"29.1 µM [rising, single point]"
O=C(COC(=O)c1cccc(F)c1)Nc1ccc2c(c1)OCCO2,cell number change,,-15%
same,AC50,[1],"0.651 µM [falling, full curve]"
O=C1N(CN2CCC3(CC2)OCCO3)c2ccccc2C12OCCCO2,cell number change,,0.703%
COc1ccc(CCNC(=O)CCS(=O)(=O)c2ccc3c(c2)NC(=O)C(C)S3)cc1OC (stereo not given),cell number change,,1.83%
same,AC50,[1],"9.2 µM [rising, partial curve]"
Cc1nn(C(=O)c2ccco2)c(C)c1Sc1ccc([N+](=O)[O-])cc1,cell number change,,-1.95%
S=c1[nH]nc(-c2cc(-c3ccccc3)n[nH]2)n1/N=C/c1c2ccccc2cc2ccccc12,cell number change,,-38.5%
same,AC50,[2],"14.6 µM [falling, single point]"
same,AC50,[1],"16.4 µM [falling, partial curve]"
O=c1[nH]c(=S)[nH]c2c1C(c1cc([N+](=O)[O-])c(N3CCOCC3)cc1N1CCOCC1)O2 (stereo not given),cell number change,,67.3%
same,AC50,[2],"29.1 µM [rising, partial curve, poor fit]"
COc1ccc(NC(=O)C2CCCN(C(=O)Nc3ccc(OC)cc3)C2)cc1 (stereo not given),AC50,[1],"1.3 µM [falling, full curve]"
Cc1[nH]c(=O)[nH]c(=O)c1S(=O)(=O)N1CCCCC1,cell number change,,1.32%
CCc1ccccc1N1C[C@@]23C=C[C@@H](O2)C(C(=O)OCC(C)C)[C@H]3C1=O (stereo not given in full),cell number change,,-5.42%
same,AC50,[2],"0.0731 µM [falling, full curve, poor fit]"
same,AC50,[1],"0.00517 µM [falling, full curve, poor fit]"
CS(=O)(=O)N1CCN(C(=O)Cc2ccc([N+](=O)[O-])cc2)CC1,AC50,[1],"3.98 µM [rising, partial curve]"
CC1CN(C(=O)CCC(=O)NC2CCN(Cc3ccccc3)CC2)c2ccccc2O1 (stereo not given),cell number change,,36.9%
same,AC50,[2],"8.2 µM [rising, partial curve, poor fit]"
Cc1nc(NC(C)(C)CO)c([N+](=O)[O-])cc1[N+](=O)[O-],cell number change,,-47.7%
same,AC50,[2],"1.3 µM [falling, full curve]"
same,AC50,[1],"1.64 µM [falling, full curve, poor fit]"
COc1ccc(N(C2=NCCCS2)S(=O)(=O)c2ccc(C(C)(C)C)cc2)cc1,cell number change,,-12.2%
same,AC50,[1],"0.00517 µM [falling, full curve, poor fit]"
O=C(COc1ccc2c(c1)CCC2)N1CCc2ccccc21,cell number change,,-11.9%
same,AC50,[1],"5.17 µM [falling, single point]"
CC(c1ccco1)N(C(=O)c1ccc(F)cc1)c1ccccn1 (stereo not given),cell number change,,15.9%
COc1ccc(N(C(=O)c2snc(C(N)=O)c2N)C(C(=O)NCc2ccccc2)c2ccc(F)cc2)c(OC)c1 (stereo not given),cell number change,,440%
same,AC50,[2],"29.1 µM [rising, single point]"
same,AC50,[1],"29.1 µM [falling, single point]"
COC(=O)c1sccc1NC(=O)c1cc(-c2ccc(C)cc2)nc2ccccc12,cell number change,,44.4%
same,AC50,[2],"6.51 µM [rising, full curve, poor fit]"
O=C1c2c(O)cc(O)cc2O[C@@]12c1c(cc(O)c3c1O[C@H](c1ccc(O)cc1)[C@@H](O)C3)O[C@@H]2c1ccc(O)cc1,cell number change,,-31.2%
same,AC50,[2],"9.2 µM [falling, full curve, poor fit]"
Cc1ccc(C(=O)NCc2cccnc2)cc1S(=O)(=O)Nc1ccccc1,AC50,[1],"0.00461 µM [rising, full curve, poor fit]"
CCOC(=O)C1CCN(C(=O)CN2C(=O)COc3ccc(C(C)(C)C)cc32)CC1,cell number change,,-28.1%
CCC(C(=O)NC1CCCC1)N(Cc1ccc2c(c1)OCO2)C(=O)c1snc(C(N)=O)c1N (stereo not given),cell number change,,-1.46%
same,AC50,[1],"1.64 µM [rising, partial curve, poor fit]"
CC(NC(=O)c1cc2cc(Cl)ccc2oc1=N)c1ccccc1 (stereo not given),cell number change,,-34.2%
same,AC50,[1],"29.1 µM [falling, single point]"
CCC(C)C(NC(N)=O)C(=O)NC1CCC(C)CC1 (stereo not given),cell number change,,-18.4%
same,AC50,[2],"0.0291 µM [falling, full curve, poor fit]"
CC(C)(C)NCC(O)COc1c(F)cc(Br)cc1F (stereo not given),AC50,[1],"23.1 µM [falling, partial curve]"
Cc1cc(C)c(OCCCCN2CCC(C)CC2)c(Br)c1,cell number change,,-41.8%
same,AC50,[2],"16.4 µM [falling, single point]"
O=C(O)c1c[nH]ccc1=O,cell number change,,2.58%
same,AC50,[1],"4.11 µM [falling, single point]"

# Some of the entries so far, as tab-separated lines.
smiles	measurement	setting	value
OCCNc1nc(Nc2ccc(Cl)c(Cl)c2)nc2ccccc12	AC50	[2]	18.4 µM [falling, partial curve]
CCc1ccccc1N1C[C@@]23C=C[C@@H](O2)C(C(=O)OCC(C)C)[C@H]3C1=O (stereo not given in full)	AC50	[2]	0.0731 µM [falling, full curve, poor fit]
Cc1nc(NC(C)(C)CO)c([N+](=O)[O-])cc1[N+](=O)[O-]	AC50	[2]	1.3 µM [falling, full curve]

# Quoted from the entries so far (two entries):
smiles,measurement,setting,value
COc1cc(NS(C)(=O)=O)ccc1Nc1c2ccccc2nc2ccccc12,cell number change,,-1.77%
same,AC50,[1],"1.84 µM [rising, full curve]"
